The text below walks through data of publication PMC5922973, “Topoisomerase VI senses and exploits both DNA crossings and bends to facilitate strand passage” (eLife, 2018).

No constants are given. Whether binding was seen depends on the method and setting. Some entries that bind do so weakly or less than the wild type.

For this assay, the target named is M. mazei Top6B cyslite-155C, Alexa555/Alexa647-labeled, in the topo VI holoenzyme (Methanosarcina mazei) (UniProt Q8PUB8). The assay is described as follows: FRET or BRET; bulk FRET between Alexa555 and Alexa647 on Cys155 of the two Top6B in the holoenzyme; 200 nM topo VI without DNA, before and up to 120 min after 1 mM AMPPNP; 50 mM potassium glutamate, 20 mM HEPES-KOH pH 7.5, 10 mM MgCl2; both purified. A general note: BRET reads energy transfer from a luciferase to a nearby fluorophore.

B1: M. mazei Top6B cyslite-155C, Alexa555/Alexa647-labeled, in the topo VI holoenzyme (enzyme, Methanosarcina mazei)
chain: METPIAEELAKKQKSISVAEFFEKNRQILGFDSAPRSLITTVKEAVDNALDACEEAGILPDILVQVERTGPDYVTVIIEDNGPGIVREQIPKVFAKLLYGSRFHALKQSRGQQGIGISAAVLYAQMTAGRHTKILSKTSPTAPAHYYELMINTSCNEPDILVDEVRDWFRPHGTQIELEMRAAYVKGRRQSIYEYLKATAIVNPHARITLIDPDGNEEVFERATDKMPEPAEEILPHPEGIELGTLMKMLHYTERQKLAPFLRYSFSKIGLLTAEEIAKAAGLDPEIDPHALGRHEARKLIEAFEKVKIMAPPTDALSPIGEDLIYRGLEKETTVDFIATSTRKPAVYSGNPFVVEVGMAYGGNLPKEEKISIMRFANRVPLLYQQGGCVTTHAVEDIKWKQYGLNQPGGGIPVGPVILLIHVASINVPFTSESKDAIADIPVIKEEIDLAIKEVARKLKHYLSKQSNLKKRREKEIIITKVLPKLAAKVAHVLEKDVPDINPVVAKIMGNLLVHRVIKNNGDGTVDVAIKVKNFGTSAYSFRVHEMLPAKVSGAKPEPKVVTMGNDYDYVWDISASAGSSKVLSYKIESASEEELQKLPQLIVEGIEEELVTGAKAFKGV
modifications: Alexa Fluor 555 C2 maleimide or Alexa Fluor 647 C2 maleimide on Cys155
notes: Top6B of Methanosarcina mazei topo VI, 'cys-lite' with Thr155 changed to cysteine; Stood in the assay as part of the A2B2 holoenzyme with Top6A; population is a mix of donor-acceptor (50%), acceptor-acceptor (25%) and donor-donor (25%) labeled enzymes; also called topo VI^cyslite-155C; TopoVI^cyslite-155C; not shown: His6, N-terminal, cleaved
B1: the binding entry is listed as “binds weakly”.
